Results: patent publication US20230100062A1, “ANTIMICROBIAL PEPTIDES” (priority 2019, published 2023)
Not every detail of the peptide structures is certain; ends, links or a residue may be inferred. Ends that are not written are not given here. * marks the point of attachment. For = O=C*

Legend:
[1] = 80° C., as reported elsewhere; cited from earlier work
[2] = tested on: methicillin-resistant S. aureus (MRSA) strains; experiment: Antibacterial activity against MRSA strains; type: cell-based; conditions: summary of MICs

For “For-MAAFMKLIQFLATKGQKYVSLAWKHKGTILKWINAGQSFEWIYKQIKKLWA [NI01, epidermicin NI01]”, the “antimicrobial activity following exposure to elevated temperatures” value [1] is given as “retains antimicrobial activity” and the “antibacterial activity in words” value [2] is given as “maintained similar levels of activity”.
For QKYVSLAWKHKGTILKWINA-NH2 [α2α3], the “antibacterial activity in words” value [2] was “failed to affect”.
